From PubChem BioAssay record AID1159506 (NCATS, 2015).

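Genome-wide siRNA knockdown in TC32 Ewing sarcoma cells, comparing luciferase light from an NR0B1-promoter reporter with a CMV-promoter reporter 48 hours after transfection.
Each siRNA was applied at 20 nM.
A z-score of the log NR0B1-over-CMV signal, less the median of siRNAs with the same seed; more negative means a stronger specific loss of the NR0B1 reporter.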

This is part of the screen; most of the strongest results are not listed here.
Sequences are the guide (antisense) strand, without overhang.

Sequence	target gene	seed-corrected z-score
AAAUUUCGUACUUGGUUUC	SPDYA	-0.3736
UCUCAUUCGAUUCCGCUGG	EIF3D	-1.435
UGAUUUACGACUGAAAACC	ZNF611	0.3759
UCCACGUUGACUGUUGUCG	EBF3	0.2896
UUGAGGUCCAGUUUCUCGG	POU4F1	-1.218
UCCUUGUCCUGUGAUAUCC	ZAK	0.148
UUUUCCACCACAUAUUCCU	CBX1	0.7457
UGUUCUUUAUUGCCUCUCC	CCDC167	-0.6616
UGCGUAACCAGGUGCGACU	ZNF853	-0.6944
UCAAUGAUCAAAGCCUGCU	FKBP6	-0.8978
UAGGUAAAGAGCAAAUGGG	NMBR	-0.4076
UUCAAUUGCAUUGUAAGGG	ERBB4	0.1118
AACUAGUCAAUUCAAGUCC	SSH2	0.2303
UUCCUCUCCAUGGGCAUCU	CENPT	0.3181
UCUCUUGGGACGUAGAUUC	LIPE	-1.069
UUUGGAAUUAUCAUUUGGG	SLC45A3	0.1146
UAAGUUAAAGAUUUCAGGG	TPST1	0.3022
UAAGUACUCAGGGUCCCAC	MIER1	-0.4855
UUAGGGUCCUGGAACAUAU	TUBB7P	0.03082
UGCACAGACAUAAUGAUUC	NORAD	0.428
UGGGCACUCAGAAUGUUGG	SERPINE1	-1.79
UUCCUUGGUAGCUUCCUGG	OTOR	-0.9939
AAAAGCAUGACCGCAACAG	TMEM47	-0.3337
UCCAACAUAACCAAAGUCC	SNAP25	-0.3285
AUCUUUUUGAGAUCGUGGG	PC	-1.201
AACGAAGUAAUGUAACUCC	UQCRC2	-0.1924
UCAUGUAAUACUCGUCAGC	SHISA6	0.3186
UUCUUUCGAAACUUCAGGC	CXCR6	0.5306
UUCCUGUCUUGAGGUUUAU	LOC729317	2.298
UCUUGUUGGUGUAAAUUUC	PRR14	0.2011
UCCGUGGACAUGUAACAGG	ARL16	-0.1534
UAUAUAUUAAGGCAGCUUU	ZNF706	0.02721
UCUCCUAUCAUAAUCCGGC	LRCH3	0.5988
AAAGCUUGGGCUUCAGUGC	IKZF4	-0.5971
UCUCUGCUAACCUUGUCCG	LZIC	-1.524
AAAGGGAACAAAUAGACAG	UBE2E3	0.5445
UCCGGUGUCACUUUGAGGA	CREB3L1	0.4799
UUCCAGGUCAAUGUUAGCC	TNFRSF17	-0.01485
UUUGCUCCCGUAAAUGUAG	POP4	1.205
UUCUCAUCAAAGUGGACGU	C20orf27	-0.1119
UAAAAUGAAGGUAUGUAGC	SLC22A9	0.4735
UUACGUUCUUCAGAGUAAC	FAM69B	0.1709
UGUUCGAACUGUACCACUC	SYNJ1	0.1612
UUCCCUUAUAGACAAGAGG	GNPAT	-0.4093
UAUAGUCUUCUUUUAGUCC	CHUK	-0.3918
UCUGGGAAGAGAUCUGAGA	ROBO4	-0.7457
AAUUCGUUUAGCUGGAUCC	LOC653155	0.05019
UUCUUUGCCGGUGUGGCUG	FAM153C	-0.8371
UAGGCGAUCACCUGGGUCU	HAAO	-0.4893
UGGAUUUUCAGCUUGUCCU	ZBTB7C	0.5173
AAUCACUCCAUACAGAGGC	FFAR2	-0.1545
UAGGUUUGUCCAGUAUUGG	WIPF1	-0.8912
UAUGUUAUUCCAACAACAC	USP31	0.215
UUACUGAAGGGAGUAUCUG	SOX30	-0.0086
UUGACAAUAACUCCCACAG	CDH13	-0.02265
UAUACUUUAGGAGCUCAGC	ARHGEF9	0.8944
UUCCAGUUCGCGGAUCUGG	HOXD11	-1.371
UUAUAGACGGGCAAGAUUC	RSC1A1	-0.01795
UCAUCAAUCUGGUUCAAGG	AHSG	-0.1236
UGUAGUAGAACAGUGAGGU	SLC26A11	0.6037
AAAUAGUCUGUAAUGAAUG	PRR5L	0.2101
UCCUAGGUAACAACGUGUC	ST5	0.9382
UUCUUUAUUAAGGACAAGU	IL5	-0.4519
UUUAAGAUCCAUAUCAUCC	VSIG10L	0.4358
ACACGUUGCAUCGAAAUGG	ZNF235	-1.272
AGUGAAGUCACGUUUAUUG	SPINK13	-0.03604
UGUGGGUUUGUAGUGGAGG	ADGRG1	-1.166
UAUGGUUUUCUCAGGGUCC	FKBP10	0.8592

Once more, the final 6:

{"sequence": "UUCUUUAUUAAGGACAAGU", "target gene": "IL5", "seed-corrected z-score": "-0.4519"}
{"sequence": "UUUAAGAUCCAUAUCAUCC", "target gene": "VSIG10L", "seed-corrected z-score": "0.4358"}
{"sequence": "ACACGUUGCAUCGAAAUGG", "target gene": "ZNF235", "seed-corrected z-score": "-1.272"}
{"sequence": "AGUGAAGUCACGUUUAUUG", "target gene": "SPINK13", "seed-corrected z-score": "-0.03604"}
{"sequence": "UGUGGGUUUGUAGUGGAGG", "target gene": "ADGRG1", "seed-corrected z-score": "-1.166"}
{"sequence": "UAUGGUUUUCUCAGGGUCC", "target gene": "FKBP10", "seed-corrected z-score": "0.8592"}